{"source": "PubChem BioAssay AID504786, Drosophila RNAi Screening Center, 2011", "test": "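Knock-downs reducing HIF reporter induction by the iron chelator DFO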 (primary screen)", "cells": "Drosophila S2 cells with a stable HIF luciferase reporter", "knock-down reagent": "long dsRNA against Drosophila genes, about 0.2 µg dsRNA per well of a 384-well plate", "time to read-out": "three days of knock-down, then 20 h of DFO before reading", "challenge": "desferrioxamine (DFO) at 100 µM, an iron chelator that mimics hypoxia, for 20 h", "measured": "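Firefly luciferase driven by the mouse ldh-a hypoxia-response element, measured after 20 h of 100 µM DFO; z-scores per plate, higher means more signal lost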", "scale": "z-score: higher = stronger loss of HIF reporter signal", "note": "The screen tested about 21,000 reagents; this is a random part of those with a known target gene and a result. 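Primary screen; positive scores mean lost reporter signal, so the sign may be inverted from the usual convention.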 Names joined by + are all predicted targets of the reagent."}
{"target": "CG33483", "amplicon": "DRSC14019", "z-score, replicate 1": 0, "z-score, replicate 2": -0.1}
{"target": "Prosalpha2", "amplicon": "DRSC16798", "z-score, replicate 1": 7.4, "z-score, replicate 2": 4.7}
{"target": "stl", "amplicon": "DRSC04396", "z-score, replicate 1": -0.3, "z-score, replicate 2": 0}
{"target": "mag", "amplicon": "DRSC11787", "z-score, replicate 1": -0.3, "z-score, replicate 2": -0.4}
{"target": "egg", "amplicon": "DRSC04119", "z-score, replicate 1": 0.4, "z-score, replicate 2": 1.5}
{"target": "kappaTry", "amplicon": "DRSC06146", "z-score, replicate 1": -0.2, "z-score, replicate 2": -0.4}
{"target": "CG15042", "amplicon": "DRSC19618", "z-score, replicate 1": -0.2, "z-score, replicate 2": 0.7}
{"target": "CG43999", "amplicon": "DRSC14605", "z-score, replicate 1": -0.3, "z-score, replicate 2": -0.2}
{"target": "unc-13-4A", "amplicon": "DRSC10201", "z-score, replicate 1": -0.3, "z-score, replicate 2": -0.3}
{"target": "unc-13-4A", "amplicon": "DRSC10202", "z-score, replicate 1": -0.3, "z-score, replicate 2": 0.3}
{"target": "unc-13-4A", "amplicon": "DRSC10203", "z-score, replicate 1": 3.7, "z-score, replicate 2": 4}
{"target": "unc-13-4A", "amplicon": "DRSC11013", "z-score, replicate 1": -0.2, "z-score, replicate 2": 0}
{"target": "prod", "amplicon": "DRSC07667", "z-score, replicate 1": 1.5, "z-score, replicate 2": 2.1}

Next part; the last 3 above are carried over.
{"target": "unc-13-4A", "amplicon": "DRSC10203", "z-score, replicate 1": 3.7, "z-score, replicate 2": 4}
{"target": "unc-13-4A", "amplicon": "DRSC11013", "z-score, replicate 1": -0.2, "z-score, replicate 2": 0}
{"target": "prod", "amplicon": "DRSC07667", "z-score, replicate 1": 1.5, "z-score, replicate 2": 2.1}
{"target": "Ttd14", "amplicon": "DRSC06632", "z-score, replicate 1": -0.3, "z-score, replicate 2": -0.7}
{"target": "Ttd14", "amplicon": "DRSC06942", "z-score, replicate 1": -0.4, "z-score, replicate 2": -0.3}
{"target": "CG17195", "amplicon": "DRSC15188", "z-score, replicate 1": -0.3, "z-score, replicate 2": -0.2}
{"target": "CG8389", "amplicon": "DRSC07158", "z-score, replicate 1": -0.3, "z-score, replicate 2": -0.7}
{"target": "arg", "amplicon": "DRSC18737", "z-score, replicate 1": -0.2, "z-score, replicate 2": -0.3}
{"target": "Glut1", "amplicon": "DRSC07927", "z-score, replicate 1": 0, "z-score, replicate 2": -0.2}
{"target": "Glut1", "amplicon": "DRSC08662", "z-score, replicate 1": -0.2, "z-score, replicate 2": -0.2}
{"target": "CG14711 + Zaf1", "amplicon": "DRSC14934", "z-score, replicate 1": -0.3, "z-score, replicate 2": -0.2}
{"target": "Coq7 + shf", "amplicon": "DRSC18448", "z-score, replicate 1": -0.3, "z-score, replicate 2": -0.6}
{"target": "Orct", "amplicon": "DRSC16777", "z-score, replicate 1": -0.3, "z-score, replicate 2": -0.2}
{"target": "Nab2", "amplicon": "DRSC14158", "z-score, replicate 1": -0.2, "z-score, replicate 2": 0.2}
{"target": "ACXA", "amplicon": "DRSC00844", "z-score, replicate 1": -0.3, "z-score, replicate 2": -0.2}
{"target": "yellow-d2", "amplicon": "DRSC04591", "z-score, replicate 1": -0.2, "z-score, replicate 2": 0.2}
{"target": "nxf4", "amplicon": "DRSC12548", "z-score, replicate 1": -0.2, "z-score, replicate 2": 0}
{"target": "Pp2A-29B", "amplicon": "DRSC03400", "z-score, replicate 1": -0.4, "z-score, replicate 2": -0.8}
{"target": "CG1598", "amplicon": "DRSC06598", "z-score, replicate 1": -0.2, "z-score, replicate 2": -0.5}
{"target": "ths", "amplicon": "DRSC06153", "z-score, replicate 1": 1.7, "z-score, replicate 2": 4.6}
{"target": "CG32808", "amplicon": "DRSC17689", "z-score, replicate 1": -0.2, "z-score, replicate 2": -0.5}
{"target": "CG11437", "amplicon": "DRSC11659", "z-score, replicate 1": 0, "z-score, replicate 2": 0}
{"target": "ERp60", "amplicon": "DRSC07309", "z-score, replicate 1": -0.1, "z-score, replicate 2": -0.9}
{"target": "Alms1a", "amplicon": "DRSC18558", "z-score, replicate 1": -0.2, "z-score, replicate 2": -0.4}
{"target": "CG11060", "amplicon": "DRSC06029", "z-score, replicate 1": -0.3, "z-score, replicate 2": -0.4}
{"target": "CG3294", "amplicon": "DRSC00590", "z-score, replicate 1": -0.4, "z-score, replicate 2": -0.5}
{"target": "CG9801", "amplicon": "DRSC16568", "z-score, replicate 1": -0.4, "z-score, replicate 2": -0.6}
{"target": "TwdlR", "amplicon": "DRSC14736", "z-score, replicate 1": -0.3, "z-score, replicate 2": 0.3}
{"target": "CG7968", "amplicon": "DRSC01903", "z-score, replicate 1": -0.2, "z-score, replicate 2": -0.5}
{"target": "Nup160 + RfC38", "amplicon": "DRSC01997", "z-score, replicate 1": -0.2, "z-score, replicate 2": -0.2}
